## Results of single-concentration screens

Sequences of proteins named here, by UniProt entry; tags and fusion partners are left off. Residues count along the entry.
UniProt A4I591, 1-473: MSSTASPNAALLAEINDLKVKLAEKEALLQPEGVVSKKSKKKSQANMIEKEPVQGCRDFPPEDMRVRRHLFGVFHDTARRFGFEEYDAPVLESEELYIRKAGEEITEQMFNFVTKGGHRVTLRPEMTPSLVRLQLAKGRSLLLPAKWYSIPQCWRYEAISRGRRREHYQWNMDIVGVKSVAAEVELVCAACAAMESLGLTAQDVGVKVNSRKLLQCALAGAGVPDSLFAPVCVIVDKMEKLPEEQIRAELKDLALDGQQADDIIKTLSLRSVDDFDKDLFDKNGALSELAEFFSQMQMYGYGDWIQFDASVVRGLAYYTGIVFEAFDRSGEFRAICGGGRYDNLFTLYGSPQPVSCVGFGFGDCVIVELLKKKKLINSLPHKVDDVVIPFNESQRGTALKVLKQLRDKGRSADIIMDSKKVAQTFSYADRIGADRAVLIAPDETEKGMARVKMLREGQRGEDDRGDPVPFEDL
UniProt Q4DA54, 1-478: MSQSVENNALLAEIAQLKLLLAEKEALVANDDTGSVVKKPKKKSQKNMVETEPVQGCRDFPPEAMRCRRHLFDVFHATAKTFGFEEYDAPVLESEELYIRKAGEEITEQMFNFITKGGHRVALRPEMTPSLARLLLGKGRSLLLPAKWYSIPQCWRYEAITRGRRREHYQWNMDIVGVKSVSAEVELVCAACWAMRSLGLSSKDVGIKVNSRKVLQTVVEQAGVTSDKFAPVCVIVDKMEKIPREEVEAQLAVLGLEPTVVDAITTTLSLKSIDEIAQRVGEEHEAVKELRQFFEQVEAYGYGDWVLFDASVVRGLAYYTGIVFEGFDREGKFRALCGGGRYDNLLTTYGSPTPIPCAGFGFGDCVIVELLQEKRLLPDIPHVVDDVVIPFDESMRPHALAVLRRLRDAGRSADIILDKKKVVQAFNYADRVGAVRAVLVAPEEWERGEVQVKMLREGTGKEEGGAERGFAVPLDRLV
UniProt P9WPC5, whole entry: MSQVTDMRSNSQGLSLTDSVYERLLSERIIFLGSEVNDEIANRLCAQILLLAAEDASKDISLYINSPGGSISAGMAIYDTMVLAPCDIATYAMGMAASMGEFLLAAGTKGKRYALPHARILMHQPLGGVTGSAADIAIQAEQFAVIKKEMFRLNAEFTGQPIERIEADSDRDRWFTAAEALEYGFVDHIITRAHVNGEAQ
UniProt P9WPC3, whole entry partner: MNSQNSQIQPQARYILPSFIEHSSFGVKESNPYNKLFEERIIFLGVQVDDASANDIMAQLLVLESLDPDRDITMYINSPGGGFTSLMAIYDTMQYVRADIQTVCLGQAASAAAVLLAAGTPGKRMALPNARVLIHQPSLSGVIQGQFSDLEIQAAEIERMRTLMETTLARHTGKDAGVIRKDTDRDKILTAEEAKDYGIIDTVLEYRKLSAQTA

A: 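Histidine-tRNA ligase, Leishmania infantum (UniProt A4I591). Enzyme assay of histidyl-tRNA synthetase; the read-out is not stated. Tested at 30 µM. Direction is inferred from retests: higher values go with stronger inhibition. The assay is labelled LdHisRS but filed under L. infantum. Size under these conditions: about 69,000 compounds, about 410 of them at 50% or above in at least one test.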
B: 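Enzyme assay of histidyl-tRNA synthetase; the read-out is not stated. Target: Histidine-tRNA ligase, Trypanosoma cruzi CL Brener (UniProt Q4DA54). Tested at 30 µM. Direction is inferred from retests: higher values go with stronger inhibition. About 69,000 compounds were tested under these conditions; 0.045% (about 31) showed 50% or more at least once.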
C: 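ClpP1P2, Mycobacterium tuberculosis (UniProt P9WPC5 and UniProt P9WPC3). Protease assay of ClpP1P2, read by the AMC dye that it sets free. Compounds at 50 µM. Direction is inferred from only a few compounds that gave an IC50; most scored high, so higher reads as stronger inhibition. Most other retested compounds had strongly negative values. Of about 69,000 compounds tested this way, about 10 (0.015%) reached 50% or more in at least one test.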

The filed quantity is “Percent Effect” (%).
The controls that fix the scale are not given in the record; negative values are as filed.
This is an unselected part of the compounds tested.

With CCC(=O)N1CCCCC1c1nc(O)c2c(n1)CN(S(C)(=O)=O)CC2 (centres undefined) the screen gave A: -7.194%; B: -1.916%; C: 17.05%. Result for CSc1ncccc1C(=O)N1CCC(c2nc3c(C)cccc3[nH]2)CC1 was A: 17.92%; B: 0%; C: -10.44%. CCS(=O)(=O)Cc1nnnn1-c1ccccc1 read A: 16.88%; B: -2.463%; C: 0.5577%. Nc1nc2c(c(=O)[nH]1)CCN(C(=O)c1ccccc1N1CCCC1)C2 gave A: 24.71%; B: 5.83%; C: -9.902%. O=C(c1cc(-c2ccco2)nc2c(Cl)cccc12)N1C[C@H]2CNC[C@H]2C1 read A: 53.33%; B: 11.69%; C: -26.29%.

Cc1cc(C)n2cc(CN3CCC(N4CCN(C)C4=O)CC3)nc2n1 gave A: 5.31%; B: 6.25%; C: -12.6%. For COCc1cc(CNC(=O)c2c(O)cccc2O)n[nH]1 the result was A: 16.53%; B: 1.02%; C: 7.928%. Result for Cc1cc(C)n2c(CNCCNc3ccccc3)cnc2n1 was A: 28%; B: 3.704%; C: 10.82%. O=c1c2sccc2nc2n1CCN(Cc1cc(F)ccc1F)CC2 gave A: 14%; B: 1.498%; C: -13.12%. Result for Cc1noc(C)c1CN(C)C(C)c1cccs1 (centres undefined) was A: 7.042%; B: 2.762%; C: -0.5071%.

Fc1cnc(N2CCCn3cnc(COc4cccnc4)c3C2)nc1 read A: 7.547%; B: -2.222%; C: 0.3763%. For Cc1ccc(CN(CCN(C)C)C(=O)Nc2ccc(C)c(C#N)c2)s1 the result was A: 7.143%; B: 2.128%; C: -0.9002%. Cc1cnc(C(=O)N2C[C@H]3CN(Cc4cccs4)C[C@H]3C2)cn1 gave A: -3.191%; B: 10.05%; C: -1.58%. Result for Cc1ccc(C(=O)N2CCC3(CC2)CCN(Cc2ccccn2)C3=O)o1 was A: -7.965%; B: 5.6%; C: 1.556%. With Cc1nc2ccccn2c1CN1C[C@@H](CN(C)C)[C@@H](CO)C1 the screen gave A: 14.52%; B: 8.442%; C: -9.724%.

Result for c1cc(C2CN(C3CCCC3)C2)n[nH]1 was A: 10.07%; B: 0.3831%; C: -25%. Cc1cc(C(F)(F)F)nn1C(C)C(=O)Nc1ccc(Cl)cn1 (centres undefined) read A: 12.5%; B: 7.453%; C: -14.23%. Cc1ccc(NC(=O)[C@H]2C[C@H](C(=O)O)CN(CC(C)C)C2)cn1 read A: 11.19%; B: 4.478%; C: -7.02%. CNc1cc(N2CCCC2CNCc2cnc(C)cn2)ncn1 (centres undefined) read A: 12.77%; B: 3.817%; C: -2.188%. Result for Fc1ccccc1CN1CCCN(c2ccc3cc[nH]c3n2)CC1 was A: 18.42%; B: 10.61%; C: -2.66%.

For CC(CNC(=O)N1CCN(Cc2ccon2)CC1)N(C)C1CC1 (centres undefined) the result was A: 15.18%; B: 6.667%; C: -0.01432%. Cc1cnn(Cc2cccc(OCC(N)=O)c2)c1 read A: 3.109%; B: 4.972%; C: -3.236%. For CC(C)c1ncncc1C(=O)N1CCN(Cc2ccsc2)CC1 the result was A: 15.18%; B: 5.202%; C: -40.21%. For CCc1cc(NCCCNS(C)(=O)=O)nc(-c2ccncc2)n1 the result was A: 5.181%; B: 6.077%; C: 2.415%. CS(=O)(=O)N1CCCC12CCCN(C(=O)c1cc(F)cc(F)c1)C2 (centres undefined) gave A: 3.947%; B: -1.087%; C: -11.59%.

Result for CN1CCc2[nH]nc(C(=O)N3CCC4(CCCO4)CC3)c2C1 was A: 17.95%; B: -0.5618%; C: -1.472%. With Cc1cc(C(F)(F)F)n2nc(C3CCCN(S(C)(=O)=O)C3)cc2n1 (centres undefined) the screen gave A: 13.04%; B: 6.818%; C: -9.792%. Cc1nc(CN(C)C2CCN(Cc3ccno3)C2)no1 (centres undefined) read A: 40%; B: 1.132%; C: 18.18%. For CCC(Nc1ccc(Oc2cccc(C#N)c2)cc1)C(N)=O (centres undefined) the result was A: 17.54%; B: 5.882%; C: 5.555%. Result for COCCO[C@@H]1C[C@H]2CN(C(=O)c3cnccn3)CCN2C1 was A: 13.21%; B: 0.5405%; C: -1.269%.

CC(C)N1CCN(C)CC1c1nnc2ccc(C(=O)N3CCCC3)cn12 (centres undefined) read A: 7.071%; B: 1.935%; C: -0.9085%. For O=C(O)c1nnn(-c2ccccc2)c1-c1ccncc1 the result was A: 7.895%; B: 1.22%; C: 11.41%.

Once more, the final 3:

* COCCO[C@@H]1C[C@H]2CN(C(=O)c3cnccn3)CCN2C1 | A: 13.21%; B: 0.5405%; C: -1.269%
* CC(C)N1CCN(C)CC1c1nnc2ccc(C(=O)N3CCCC3)cn12 (centres undefined) | A: 7.071%; B: 1.935%; C: -0.9085%
* O=C(O)c1nnn(-c2ccccc2)c1-c1ccncc1 | A: 7.895%; B: 1.22%; C: 11.41%

Measurements from “University of Dundee, Small-Polar-MMV Screening Library” (2021), ChEMBL document CHEMBL3988442.